Results reported in patent US10017506B2, “ATX modulating agents” (BIOGEN MA INC., priority 2012, dated 2018).

target: T1, Human ATX protein (Homo sapiens, UniProt Q13822); assay: ATX biochemical FRET assay with FS-3 substrate; details: IC50, FRET substrate FS-3 2 μM, ATX 1.0 μg/mL, 30 minutes pre-incubation, 2 hours at room temperature
T1 construct: made in house
From the text: ATX (Autotaxin) is a 125 KDa glycoprotein with lysophospholipase D (LPLD) activity that generates the bioactive lipid lysophosphatidic acid (LPA) from lysophosphatidylcholine (LPC). The ATX biochemical assay utilizes a FRET (fluorescence resonance energy transfer) technology platform. The fluorescence signal of FRET substrate FS-3 is quenched due to intra-molecular FRET of a fluorophore to a non-fluorescing quencher (Ferguson, C. G., et al., Org Lett. 2006 May 11; 8(10): 2023-2026, which is incorporated by reference in its entirety). ATX catalyzes the hydrolysis of the substrate which separates the dabsyl quencher from the fluorescein reporter, which becomes fluorescent. The reaction is monitored by a SpectraMax M5 (Molecular Devices, Sunnyvale, Calif.) with at excitation wavelength 485 nm and emission wavelength […].
Fatty acid free-BSA (Sigma A8806): 10 mg/mL in H2O, stored at 4° C.
2×ATX assay buffer: 100 mM Tris, 280 mM NaCl, 10 mM KCl, 2 mM CaCl2, 2 mM MgCl2, pH 7.4.
Human ATX protein: expressed and purified in house. Stored at −80° C.
Substrate FS-3 (Echelon, L-2000): 100 μg in 77.74 μL H2O (1 mM stock), stored at −20° C.
384-well flat bottom plates—Corning #3575.
Compound dilution—All compounds were provided at 10 mM in 100% DMSO. In the first well, 2 μL of 10 mM compound was added to 78 μL of DMSO (1:40 dilution). In subsequent wells 3-fold dilution (total 10 dilutions) were performed.
1×ATX assay buffer was made up with a final concentration of 1 mg/mL fatty acid free-BSA using 2×ATX assay buffer, 10 mg/ml fatty acid free-BSA and ddH2O.
ATX protein was diluted with 1×ATX assay buffer to a concentration of 1.32 μg/mL (1.32×). 38 μL was added per well to the assay plate. The final concentration of ATX in the reaction as 1.0 μg/mL.
2 μL per well of compounds was transferred to provide the desired concentration. The plate was centrifuged, then incubated at room temperature for 30 minutes on the shaker. […]
Fluorescence was measured using SpectraMax M5 (excitation at 485 nm/emission at 538 nm, top read).

SMILES | IC50 [µM]
C[C@H](c1ccc2ccc(O[C@H]3CC[C@@H](C)CC3)c(C(F)(F)F)c2c1)N1C2CCC1CC(C(=O)O)C2 (single isomer, unassigned) [Example 6a] | ≤ 0.1
C[C@@H](c1ccc2ccc(O[C@H]3CC[C@@H](C)CC3)c(C(F)(F)F)c2c1)N1C2CCC1CC(C(=O)O)C2 (single isomer, unassigned) [Example 6b] | ≤ 0.25
CC(c1ccc2ccc(O[C@H]3CC[C@@H](C)CC3)c(C(F)(F)F)c2c1)N1C2CCC1CC(C(=O)O)C2 (stereo partly drawn) [Example 6, 8-{1-[7-(cis-4-methyl-cyclohexyloxy)-8-trifluoromethyl-naphthalen-2-yl]-ethyl}-8-aza-bicyclo[3.2.1]octane-3-carboxylic acid] | ≤ 0.1
